Protein sequences, listed by entry. Tags and fused reporters are not part of them.
UniProt Q62083: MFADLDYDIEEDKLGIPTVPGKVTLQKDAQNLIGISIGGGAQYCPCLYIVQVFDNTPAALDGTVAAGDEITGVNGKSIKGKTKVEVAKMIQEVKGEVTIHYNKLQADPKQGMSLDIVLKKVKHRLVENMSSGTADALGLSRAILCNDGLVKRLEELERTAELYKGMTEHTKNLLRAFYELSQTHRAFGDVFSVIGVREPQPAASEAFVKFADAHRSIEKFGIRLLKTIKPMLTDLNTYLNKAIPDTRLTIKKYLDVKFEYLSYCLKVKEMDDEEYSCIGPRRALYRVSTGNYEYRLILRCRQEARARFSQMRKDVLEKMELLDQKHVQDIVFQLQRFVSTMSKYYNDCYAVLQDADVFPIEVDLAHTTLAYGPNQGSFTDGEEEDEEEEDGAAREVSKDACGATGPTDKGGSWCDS

In article doi:10.1101/2020.10.05.325951:

Target: Myc-BioID2-PICK1 (mouse (printed as mPICK1)) (UniProt Q62083)
Test: proximity labelling

B1: syntaxin 6 (protein, UniProt Q63635 1-255)
chain: MSMEDPFFVVKGEVQKAVNTAQGLFQRWTELLQGPSAATREEIDWTTNELRNNLRSIEWDLEDLDETISIVEANPRKFNLDATELSIRKAFITSTRQIVRDMKDQMSASSVQALAERKNRQALLGDSSSQNWDAGVTDRYGRLDRELQLANSHFIEEQQAQQQLIVEQQDEQLELVSGSIGVLKNMSQRIGGELEEQAVMLDDFSHELESTQSRLDNVMKKLAKVSHMTSDRRQWCAIAILFAVLLVVLTLFLVL
In the case of B1, the binding is reported as “binds”.

Results are given in words; binding and its absence hold for the method and conditions named. In cells and extracts the contact can be indirect. Here binding means that the protein was enriched with, or labelled near, the bait; the list need not be complete.
